Data reported in patent US11718631B2, “Sulphonamides and compositions thereof for treating conditions associated with NLRP activity” (Novartis AG, priority 2017, dated 2023).

Sequences of proteins named here, by UniProt entry; tags and fusion partners are left off.
UniProt Q96P20, whole entry: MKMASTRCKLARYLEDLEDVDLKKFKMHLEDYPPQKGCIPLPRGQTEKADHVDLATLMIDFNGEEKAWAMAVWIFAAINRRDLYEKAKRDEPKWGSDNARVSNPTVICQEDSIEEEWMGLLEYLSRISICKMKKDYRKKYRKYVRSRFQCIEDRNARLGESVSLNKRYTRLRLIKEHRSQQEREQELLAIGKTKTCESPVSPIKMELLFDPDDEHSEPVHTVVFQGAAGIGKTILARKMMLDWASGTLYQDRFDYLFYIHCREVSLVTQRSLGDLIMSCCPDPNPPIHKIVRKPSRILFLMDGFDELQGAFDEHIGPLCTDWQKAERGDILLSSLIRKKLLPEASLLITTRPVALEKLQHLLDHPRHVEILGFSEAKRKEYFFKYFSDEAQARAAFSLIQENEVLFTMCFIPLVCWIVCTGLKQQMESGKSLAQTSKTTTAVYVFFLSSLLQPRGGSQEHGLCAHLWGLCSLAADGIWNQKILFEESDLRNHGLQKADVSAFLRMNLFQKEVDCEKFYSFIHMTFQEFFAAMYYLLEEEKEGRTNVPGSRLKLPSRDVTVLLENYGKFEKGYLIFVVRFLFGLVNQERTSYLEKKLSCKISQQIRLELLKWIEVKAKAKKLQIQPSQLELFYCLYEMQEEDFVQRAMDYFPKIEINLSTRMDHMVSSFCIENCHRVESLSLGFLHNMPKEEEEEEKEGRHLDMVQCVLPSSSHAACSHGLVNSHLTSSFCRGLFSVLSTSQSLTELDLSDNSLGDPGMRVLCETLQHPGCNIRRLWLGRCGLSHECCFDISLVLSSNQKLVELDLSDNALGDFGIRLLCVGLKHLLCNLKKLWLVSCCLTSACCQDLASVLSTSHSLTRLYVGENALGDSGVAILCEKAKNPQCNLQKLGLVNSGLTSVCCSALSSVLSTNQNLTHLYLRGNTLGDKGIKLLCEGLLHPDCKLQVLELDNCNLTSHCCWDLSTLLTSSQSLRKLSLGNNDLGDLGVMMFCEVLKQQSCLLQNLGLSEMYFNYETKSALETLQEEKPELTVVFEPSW

Target: NLRP3 (Homo sapiens, UniProt Q96P20)
Experiment: IL-1β production in PMA-differentiated THP-1 cells stimulated with gramicidin (hTHP-1 assay)
Conditions: read-out: NLRP3 Antagonist, human THP1 NLRP3, IL-1b, Normalized: GeoMean IC50; hTHP-1 assay containing 2% fetal bovine serum; average IC50, class symbols

IC50: 1000 to 5000 nM
Structure (SMILES): Cc1cccc(-c2cc(C(C)C)c(CC(=O)NS(=O)(=O)c3ccc(CN(C)C)cc3)c(C(C)C)c2)c1

Structures were worked out from names or drawings and are uncertain.
